Measured values published in PubChem BioAssay AID540276 (National Center for Advancing Translational Sciences (NCATS), 2011).
Out of some 300,000 compounds screened, about 5,400 (1.8%) were called active. The shares of active, inactive and inconclusive entries below differ from those in the screen. Calls follow the shape of the full dose curve; tested in HEK293 cells. Potencies beside an inconclusive call are fits to weak or partial responses and may not hold up.

Assay: qHTS for inhibitors of binding or entry into cells for Marburg Virus
Conditions: Marburg virus pseudotyped entry inhibition, cell reporter; activity change, negative = inhibition: at 37.8 µM (top of the series) unless noted
% is scaled to controls: 0 for no effect and ±100 for the full control effect; potency is read from the fitted curve at half-maximal effect.

Row | SMILES | Potency | activity change, negative = inhibition
1 | Cc1cc(NC(=O)c2ccc(N(C)S(=O)(=O)c3ccccc3)cc2)no1 | inconclusive: 0.259 µM [inhibitor, single point] | 
2 | Cc1ccccc1Cn1c2ccccc2c2cnn(CC(=O)NCCCN3CCOCC3)c(=O)c21 | inconclusive: 35.5 µM [inhibitor, single point] | 
3 | Cc1cccc(NC(=O)CSc2nnc(C)c(=O)n2N)c1C | inconclusive: 5.62 µM [inhibitor, single point] | 
4 | COc1ccccc1C(=O)COC(=O)c1ccc(-n2cnnn2)cc1 |  | inactive: 1.31%
5 | CCOC(=O)Cc1csc(SCC(=O)Nc2cc(Cl)ccc2Oc2ccccc2)n1 | inconclusive: 35.5 µM [inhibitor, single point] | 
6 | Cc1cc(C)cc(N(C(=O)c2ccccn2)C(C(=O)NC2CCCCC2)c2ccncc2)c1 (centres undefined) | inconclusive: 11.2 µM [inhibitor, partial curve, poor fit] | 
7 | CCc1nnc(NC(=O)CCc2ccccc2OC)s1 | inconclusive: 6.31 µM [inhibitor, single point] | 
8 | COc1ccc(CCNC(=S)N(C)C)cc1OC | inconclusive: 3.55 µM [activator, partial curve, poor fit] | 
9 | COc1ccc(C(C)=O)cc1CSc1nc2cc(C(=O)O)ccc2c(=O)n1Cc1ccccc1 | inconclusive: 4.47 µM [activator, full curve, poor fit] | 
10 | COc1ccc(S(=O)(=O)N2CCCC(C(=O)NCCC3=CCCCC3)C2)cc1 (centres undefined) | inconclusive: 0.0708 µM [inhibitor, full curve, poor fit] | 
11 | Cc1c(Br)c(C(F)(F)F)nn1CC(=O)NCc1ccccc1 | inconclusive: 3.16 µM [activator, single point] | 
12 | Cn1c(N)c(C(=O)CSc2n[nH]c(-c3ccccc3)n2)c(=O)n(C)c1=O | inconclusive: 2 µM [inhibitor, single point] | 
13 | O=C(O)CC1Sc2nc3ccccc3n2C1=O (centres undefined) |  | inactive: 4.3%
14 | Cc1nn(CCCC(=O)NCc2ccccc2)c(=O)c2cc3sccc3n12 | inconclusive: 4.47 µM [inhibitor, partial curve, poor fit] | 
15 | O=C(Cc1ccc(F)cc1)NCCS(=O)(=O)N1CCN(c2ccccc2)CC1 | inconclusive: 22.4 µM [inhibitor, single point] | 
16 | CCn1ccnc1CN(C)Cc1nc(-c2ccccc2)no1 | inconclusive: 35.5 µM [activator, single point] | 
17 | O=C(c1ccccc1)c1cccs1 |  | inactive: 10.3% [at 46.1 µM]
18 | Cn1c(O)c(N=NC(=O)c2cc(-c3cccs3)nc3ccccc23)c2ccccc21 | inconclusive: 0.631 µM [inhibitor, full curve, poor fit] | 
19 | CC(/C=C1\SC(=S)N(CCC(=O)Nc2ccccc2O)C1=O)=C\c1ccccc1 | inconclusive: 22.4 µM [inhibitor, single point] | 
20 | Cc1[nH]c2ccccc2c1/C=N/Nc1nc2ccccc2[nH]1 | inconclusive: 35.5 µM [inhibitor, single point] | 
21 | CSc1cc(-c2ccc(Cl)cc2)c(C(=O)NN)s1 | inconclusive: 14.6 µM [inhibitor, single point] | 
22 | O=C1CC(c2ccccc2)CC2=C1C=Nc1ccccc1N2 (centres undefined) | inconclusive: 10 µM [inhibitor, partial curve, poor fit] | 

Whole records, looked up by structure:
Cc1nn(CCCC(=O)NCc2ccccc2)c(=O)c2cc3sccc3n12 as listed: Potency: inconclusive: 4.47 µM [inhibitor, partial curve, poor fit]
Cc1c(Br)c(C(F)(F)F)nn1CC(=O)NCc1ccccc1 as listed: Potency: inconclusive: 3.16 µM [activator, single point]

(list continues)

Row | SMILES | Potency | activity change, negative = inhibition
23 | CCCS(=O)(=O)N1CCC(C(=O)NCc2ccc(F)cc2)CC1 |  | inactive: 21.5%
24 | COc1ccc(CCNC(=O)CC2SC(=NCCc3ccccc3)NC2=O)cc1 (centres undefined) | inconclusive: 6.31 µM [inhibitor, single point] | 
25 | Brc1ccc(-c2nc3ccccc3s2)s1 | inconclusive: 0.562 µM [activator, full curve, poor fit] | 
26 | CCOC(=O)c1c(C)n(CC(O)CN2CCOCC2)c2cc(Br)c(OC)cc12 (centres undefined) |  | inactive: -27.2% [at 46.1 µM]
27 | Cc1cc(C)cc(Nc2c(F)c(F)c(F)c(F)c2C(=O)O)c1 | inconclusive: 5.62 µM [inhibitor, partial curve, poor fit] | 
28 | CCCn1nc(C(=O)NNC(=O)CSCC(=O)Nc2cc(C)on2)c2ccccc2c1=O | inconclusive: 1.41 µM [activator, partial curve, poor fit] | 
29 | Cc1cc([N+](=O)[O-])ccc1NC(=O)Cc1ccc(F)cc1 | inconclusive: 20 µM [activator, partial curve, poor fit] | 
30 | COc1ccccc1N1C(=O)CC1(C#N)c1ccc(OCc2ccccc2)cc1 (centres undefined) | inconclusive: 35.5 µM [inhibitor, single point] | 
31 | COc1ccc(CCN2C(=O)C3C4CC(C5C(C(N)=O)=NOC45)C3C2=O)cc1OC (centres undefined) | inconclusive: 31.6 µM [activator, single point] | 
32 | COc1ccc(OC)c(N2Cc3cc(C)c(C)cc3C2)c1 | inconclusive: 6.51 µM [inhibitor, single point] | 
33 | Oc1ccccc1-c1nc2ccccc2nc1-c1ccccc1 |  | inactive: -10.8%
34 | COCCNC(=S)N(C)C1(c2ccccc2Cl)CCCCC1=O (centres undefined) |  | inactive: 12.8% [at 46.1 µM]
35 | CC(C)(Oc1ccc(Cl)cc1)C(=O)NC1CCN(Cc2ccccc2)CC1 | inconclusive: 3.55 µM [inhibitor, partial curve, poor fit] | 
36 | CC(Cc1ccccc1)NC(=O)NC(C)Cc1ccccc1 (centres undefined) |  | inactive: 14.9%
37 | COc1ccc(-n2c(C)cc(/C=C3\C(=O)NN(c4ccccc4)C3=O)c2C)cc1 |  | inactive: 16.9%
38 | Cc1[nH]c2ccccc2c1SCCNC(=O)c1ccc(Br)o1 | inconclusive: 18.3 µM [inhibitor, single point] | 
39 | CN(C(=S)Nc1cccnc1)c1ccc(O)cc1 |  | inactive: -11.2%
40 | COc1ccc(C(=O)NNC(=O)C(=O)NC2CCCCC2)cc1 |  | inactive: -4.15% [at 46.1 µM]
41 | CN(C)/C=C1\Cc2ccccc2C1=O | inconclusive: 3.98 µM [inhibitor, partial curve, poor fit] | 
42 | O=S(=O)(NC1CCCCC1Sc1ncccn1)c1ccc(Cl)cc1 (centres undefined) | inconclusive: 35.5 µM [activator, single point] | 
43 | CCc1cc2c(SCC(=O)NC3CCS(=O)(=O)C3)ncnc2s1 (centres undefined) | inconclusive: 39.8 µM [inhibitor, partial curve, poor fit] | 
44 | CC(NC(=O)c1cccnc1)c1ccc2c(c1)OCO2 (centres undefined) | inconclusive: 6.51 µM [activator, single point] | 
